Reference: PubChem BioAssay AID200 (DTP/NCI, 2004)
The list shows only some results of the screen, not a fair sample: it is rich in T/C values a quarter to a half above the control, in often repeated tests (any T/C) and in doses without a T/C. Other doses and runs of a compound stand elsewhere. T/C gives the treated animals as a percentage of the vehicle group. Some doses have a count of surviving animals in place of a T/C: the source holds a T/C of zero for them, seemingly a mark for toxic or unscored doses. Some survivor counts are full or nearly so, which does not show that the dose was tolerated: the source hardly ever lists a survival T/C far under the control, and the zero likely stands for such cases as well. Survivors were counted at the toxicity check, usually on the fifth day, unless a day is given; later deaths do not show. Schedule codes are those of the source, taken here to give the interval after Q, in days (D) or hours (H), and the number of doses after X. Marks such as (2×) stand for listed records that agree. Some entries were tested several times; the values are given in rising order. For survival time, the PubChem record calls one and a half times the control and up active, and a quarter to a half above the control has no call in these data; cut-offs in other NCI protocols can differ. Some T/C values carry the count of animals alive at the toxicity check (mostly the fifth day); without a count, all were alive then.

Test system: B6C3F1 mice, B16 melanoma ip, median survival T/C
Assay: NCI In Vivo Anticancer Drug Screen. Data for tumor model B16 Melanoma (intraperitoneal) in B6C3F1 mice
Conditions: T/C endpoint: median survival time, higher T/C = longer survival
Summary of the method: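 Values are T/C ratios: the measurement in treated animals divided by that in vehicle-treated controls, using survival or tumor size in mice carrying transplantable tumors.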

[1] = dose: 0.25 mg/kg/injection, schedule: Q01DX009 (ip), vehicle: water
[2] = dose: 2.0 mg/kg/injection, schedule: Q01DX009 (ip), vehicle: water
[3] = dose: 25.0 mg/kg/injection, schedule: Q01DX009 (ip), vehicle: saline
[4] = dose: 50.0 mg/kg/injection, schedule: Q01DX009 (ip), vehicle: saline
[5] = dose: 100.0 mg/kg/injection, schedule: Q01DX009 (ip), vehicle: saline
[6] = dose: 200.0 mg/kg/injection, schedule: Q01DX009 (ip), vehicle: saline
[7] = dose: 25.0 mg/kg/injection, schedule: Q01DX009 (ip), vehicle: Klucel (hydroxypropylcellulose) (HPC)
[8] = dose: 200.0 mg/kg/injection, schedule: Q01DX009 (ip), vehicle: Klucel (hydroxypropylcellulose) (HPC)
[9] = dose: 200.0 mg/kg/injection, schedule: Q01DX009 (ip), vehicle: saline with Tween-80
[10] = dose: 400.0 mg/kg/injection, schedule: Q01DX009 (ip), vehicle: saline with Tween-80
[11] = dose: 100.0 mg/kg/injection, schedule: Q01DX009 (ip), vehicle: saline with Tween-80

Q: CO[C@@]12[C@H](COC(N)=O)C3=C(C(=O)C(C)=C(N)C3=O)N1C[C@@H]1N[C@@H]12 was tested. Which T/C (dose: 0.25 mg/kg/injection, schedule: Q01DX009 (ip), vehicle: saline with Tween-80) did it give?
A: Its T/C is 130 % of control.

Q: What about the T/C (dose: 0.25 mg/kg/injection, schedule: Q01DX009 (ip), vehicle: saline) of the same compound?
A: The T/C was 141 % of control.

Q: What about the T/C [1] of the same compound?
A: Its T/C is 136 % of control.

Q: And the T/C (dose: 0.5 mg/kg/injection, schedule: Q01DX009 (ip), vehicle: saline)?
A: The T/C was 130 % of control.

Q: And the T/C (dose: 0.5 mg/kg/injection, schedule: Q01DX009 (ip), vehicle: water)?
A: Its T/C is 139 % of control.

Q: What about the T/C (dose: 0.5 mg/kg/injection, schedule: Q04DX003 (ip), vehicle: clinical formulation, evaluated on day 45) of the same compound?
A: The T/C was 149 % of control.

Q: What about the T/C (dose: 0.5 mg/kg/injection, schedule: Q04DX003 (ip), vehicle: clinical formulation, evaluated on day 60) of the same compound?
A: The T/C was 126 % of control.

Q: What about the T/C (dose: 1.0 mg/kg/injection, schedule: Q01DX001 (ip), vehicle: clinical formulation) of the same compound?
A: Its T/C is 136 % of control.

Q: What about the survivor count (dose: 1.0 mg/kg/injection, schedule: Q01DX005 (iv), vehicle: saline) of the same compound?
A: The survivor count was 10 of 10.

Q: What about the T/C (dose: 1.0 mg/kg/injection, schedule: Q01DX009 (ip), vehicle: saline) of the same compound?
A: Its T/C is 139 % of control.

Q: What about the T/C (dose: 1.5 mg/kg/injection, schedule: Q04DX003 (ip), vehicle: clinical formulation) of the same compound?
A: Its T/C is 139 % of control.

Q: And the T/C (dose: 2.0 mg/kg/injection, schedule: Q01DX001 (ip), vehicle: saline)?
A: The T/C was 135 % of control.

Q: And the survivor count (dose: 2.0 mg/kg/injection, schedule: Q01DX005 (iv), vehicle: saline)?
A: Its survivor count is 10 of 10.

Q: And the T/C (dose: 2.0 mg/kg/injection, schedule: Q01DX009 (ip), vehicle: Klucel (hydroxypropylcellulose) (HPC))?
A: The T/C was 142 % of control.

Q: And the survivor count (dose: 2.0 mg/kg/injection, schedule: Q01DX009 (ip), vehicle: saline with Tween-80)?
A: The survivor count was 10 of 10.

Q: What about the survivor count (dose: 2.0 mg/kg/injection, schedule: Q01DX009 (ip), vehicle: saline) of the same compound?
A: The survivor count was 10 of 10.

Q: What about the survivor count [2] of the same compound?
A: The survivor count was 10 of 10.

Q: And the survivor count (dose: 4.0 mg/kg/injection, schedule: Q01DX009 (ip), vehicle: saline with Tween-80)?
A: Its survivor count is 10 of 10.

Q: What about the survivor count (dose: 4.0 mg/kg/injection, schedule: Q01DX009 (ip), vehicle: saline) of the same compound?
A: The survivor count was 10 of 10.

Q: And the survivor count (dose: 4.0 mg/kg/injection, schedule: Q04DX003 (ip), vehicle: clinical formulation)?
A: Its survivor count is 10 of 10.

Q: What about the survivor count (dose: 5.0 mg/kg/injection, schedule: Q01DX009 (oral), vehicle: water) of the same compound?
A: The survivor count was 10 of 10.

Q: What about the survivor count (dose: 6.0 mg/kg/injection, schedule: Q04DX003 (ip), vehicle: clinical formulation) of the same compound?
A: Its survivor count is 10 of 10.

Q: What about the T/C (dose: 8.0 mg/kg/injection, schedule: Q01DX001 (iv), vehicle: saline) of the same compound?
A: The T/C was 131 % of control.

Q: And the survivor count (dose: 8.0 mg/kg/injection, schedule: Q04DX003 (ip), vehicle: clinical formulation)?
A: Its survivor count is 10 of 10 (2×).

Q: What about the survivor count (dose: 10.0 mg/kg/injection, schedule: Q01DX009 (oral), vehicle: water) of the same compound?
A: The survivor count was 10 of 10.

Q: And the survivor count (dose: 12.0 mg/kg/injection, schedule: Q04DX003 (ip), vehicle: clinical formulation)?
A: Its survivor count is 10 of 10.

Q: And the survivor count (dose: 20.0 mg/kg/injection, schedule: Q01DX009 (oral), vehicle: water)?
A: Its survivor count is 10 of 10.

Q: Which T/C [3] does the source give for Nc1ncc(C2OC(CO)C(O)C2O)c(=O)[nH]1 (stereo not drawn) here?
A: The T/C was 130 % of control.

Q: And the T/C [4]?
A: The T/C was 143 % of control.

Q: And the survivor count [5]?
A: Its survivor count is 8 of 10.

Q: What about the survivor count [6] of the same compound?
A: Its survivor count is 8 of 10 and 10 of 10.

Q: And the survivor count (dose: 400.0 mg/kg/injection, schedule: Q01DX009 (ip), vehicle: saline)?
A: Its survivor count is 10 of 10.

Q: Which results are given for COc1cc(C(=O)c2cc3c(cc2C)OCO3)cc(OC)c1OC?
A: T/C [7]: 125 % of control; T/C (dose: 100.0 mg/kg/injection, schedule: Q01DX009 (ip), vehicle: Klucel (hydroxypropylcellulose) (HPC), evaluated on day 40): 125 % of control; T/C (dose: 100.0 mg/kg/injection, schedule: Q01DX009 (ip), vehicle: Klucel (hydroxypropylcellulose) (HPC), evaluated on day 60): 130 % of control; survivor count [8]: 10 of 10

Q: With O=C(c1cccnc1)c1cc(-c2ccccn2)c(=O)n2ccccc12 as the compound, how does the survivor count [9] read?
A: The survivor count was 10 of 10.

Q: What about the survivor count [10] of the same compound?
A: The survivor count was 9 of 10.

Q: What does the source list for CCN(CC)c1ccc2[nH]c3c(C(N)=O)cc(=O)c(=O)c=3oc2c1?
A: survivor count (dose: 50.0 mg/kg/injection, schedule: Q01DX009 (ip), vehicle: saline with Tween-80): 7 of 10; survivor count [11]: 8 of 10; survivor count [9]: 6 of 10

Q: Which results are given for COc1cccc2c1C(=O)c1c(O)c3c(c(O)c1C2=O)CC(O)(C(=O)CO)CC3OC1CC(N)C(O)C(C)O1 (stereo not drawn)?
A: T/C (dose: 32.0 mg/kg/injection, schedule: Q01DX001 (ip), vehicle: other): 126 % of control; T/C (dose: 53.3 mg/kg/injection, schedule: Q01DX001 (ip), vehicle: other): 134 % of control; survivor count (dose: 72.0 mg/kg/injection, schedule: Q01DX009 (ip), vehicle: water): 9 of 10; survivor count (dose: 144.0 mg/kg/injection, schedule: Q01DX009 (ip), vehicle: water): 2 of 10

Q: What does the source list for CNC(=O)OCc1c(COC(=O)NC)c(-c2ccc(F)cc2)n2c1CCC2?
A: T/C (dose: 0.78 mg/kg/injection, schedule: Q01DX009 (ip), vehicle: Klucel (hydroxypropylcellulose) (HPC)): 144 % of control; T/C (dose: 1.56 mg/kg/injection, schedule: Q01DX009 (ip), vehicle: Klucel (hydroxypropylcellulose) (HPC)): 131 % of control; T/C (dose: 3.12 mg/kg/injection, schedule: Q01DX009 (ip), vehicle: Klucel (hydroxypropylcellulose) (HPC)): 137 % of control; T/C (dose: 6.25 mg/kg/injection, schedule: Q01DX009 (ip), vehicle: Klucel (hydroxypropylcellulose) (HPC)): 146 % of control; survivor count [7]: 10 of 10

Q: CCSCCNC(=O)[C@@]1(O)[C@H](O)[C@]2(CC)C=CCN3CC[C@@]4(c5cc([C@@]6(OC(C)=O)C[C@H]7C=C(CC)CN(CCc8c6[nH]c6ccccc86)C7)c(OC)cc5N(C)[C@@H]14)[C@@H]32 was tested. Which T/C (dose: 0.13 mg/kg/injection, schedule: Q01DX009 (ip), vehicle: water) did it give?
A: Its T/C is 132 % of control.

Q: And the T/C [1]?
A: Its T/C is 129 % of control [9 of 10 alive].

Q: What about the T/C (dose: 1.0 mg/kg/injection, schedule: Q01DX009 (ip), vehicle: water) of the same compound?
A: Its T/C is 138 % of control.

Q: What about the survivor count [2] of the same compound?
A: Its survivor count is 10 of 10.

Q: Which survivor count [6] does the source give for C1CNCOC1 here?
A: The survivor count was 7 of 10.

Q: Which results are given for O=C(O[Si](Cc1ccccc1)(Cc1ccccc1)Cc1ccccc1)N(CCCl)CCCl?
A: T/C [11]: 125 and 136 % of control; T/C [9]: 126 and 132 % of control; survivor count [10]: 10 of 10

Q: Which survivor count (dose: 100.0 mg/kg/injection, schedule: Q01DX009 (ip), vehicle: Klucel (hydroxypropylcellulose) (HPC)) does the source give for CC(C)(C)OC(=O)NC(Cc1ccc(OCc2ccccc2)cc1)C(=O)ON1C(=O)CCC1=O (stereo not drawn) here?
A: Its survivor count is 10 of 10.

Q: What about the survivor count [8] of the same compound?
A: The survivor count was 10 of 10.

Q: What about the survivor count (dose: 400.0 mg/kg/injection, schedule: Q01DX009 (ip), vehicle: Klucel (hydroxypropylcellulose) (HPC)) of the same compound?
A: Its survivor count is 3 of 10.

Q: How did the survivor count [4] turn out when CCCNc1ncnc2c1cnn2C was run?
A: The survivor count was 10 of 10.

Q: CNC[C@@H](O)c1ccc(O)c(O)c1 was tested. Which survivor count (dose: 6.0 mg/kg/injection, schedule: Q01DX009 (ip), vehicle: suspension in saline) did it give?
A: The survivor count was 3 of 10.

Q: What about the survivor count (dose: 12.0 mg/kg/injection, schedule: Q01DX009 (ip), vehicle: suspension in saline) of the same compound?
A: Its survivor count is 0 of 10.

Q: Which T/C (dose: 1.0 mg/kg/injection, schedule: Q01DX009 (ip), vehicle: Klucel (hydroxypropylcellulose) (HPC)) does the source give for COc1cc([C@@H]2c3cc4c(cc3[C@H](O)[C@H]3COC(=O)[C@H]23)OCO4)cc(OC)c1OC here?
A: The T/C was 128 % of control.

Q: And the survivor count (dose: 8.0 mg/kg/injection, schedule: Q01DX009 (ip), vehicle: Klucel (hydroxypropylcellulose) (HPC))?
A: The survivor count was 6 of 10.

Q: What about the survivor count (dose: 16.0 mg/kg/injection, schedule: Q01DX009 (ip), vehicle: Klucel (hydroxypropylcellulose) (HPC)) of the same compound?
A: Its survivor count is 4 of 10.

Q: And the survivor count (dose: 32.0 mg/kg/injection, schedule: Q01DX009 (ip), vehicle: Klucel (hydroxypropylcellulose) (HPC))?
A: Its survivor count is 0 of 10.

Q: For O=[N+]([O-])c1c(O)c(CNCCCO)cc(CNCCCO)c1O, which survivor count [3] is on record?
A: Its survivor count is 9 of 10.

Q: And the survivor count [4]?
A: Its survivor count is 10 of 10.

Q: What about the survivor count [5] of the same compound?
A: Its survivor count is 5 of 10.

Q: And the survivor count [6]?
A: Its survivor count is 0 of 10.

Q: CCCCCCCCCCCCSC1=C(Cl)C(=O)C(OC)=C(OC)C1=O was tested. Which survivor count [11] did it give?
A: The survivor count was 2 of 10.
